Test [1] deals with sTfR重组蛋白 (UniProt P02786). In words: indirect ELISA, serially diluted supernatants of positive clones on coated sTfR recombinant protein. On the technique in general: An ELISA detects its analyte on a solid surface through an enzyme-linked reagent.
Test [2] has as its target sTfR重组蛋白 (UniProt P02786). In words: indirect ELISA, protein G purified antibody on coated sTfR recombinant protein.

By UniProt entry, the sequences of proteins in these tests, tags left out. Residues count along the entry.
UniProt P02786, residues 101-760: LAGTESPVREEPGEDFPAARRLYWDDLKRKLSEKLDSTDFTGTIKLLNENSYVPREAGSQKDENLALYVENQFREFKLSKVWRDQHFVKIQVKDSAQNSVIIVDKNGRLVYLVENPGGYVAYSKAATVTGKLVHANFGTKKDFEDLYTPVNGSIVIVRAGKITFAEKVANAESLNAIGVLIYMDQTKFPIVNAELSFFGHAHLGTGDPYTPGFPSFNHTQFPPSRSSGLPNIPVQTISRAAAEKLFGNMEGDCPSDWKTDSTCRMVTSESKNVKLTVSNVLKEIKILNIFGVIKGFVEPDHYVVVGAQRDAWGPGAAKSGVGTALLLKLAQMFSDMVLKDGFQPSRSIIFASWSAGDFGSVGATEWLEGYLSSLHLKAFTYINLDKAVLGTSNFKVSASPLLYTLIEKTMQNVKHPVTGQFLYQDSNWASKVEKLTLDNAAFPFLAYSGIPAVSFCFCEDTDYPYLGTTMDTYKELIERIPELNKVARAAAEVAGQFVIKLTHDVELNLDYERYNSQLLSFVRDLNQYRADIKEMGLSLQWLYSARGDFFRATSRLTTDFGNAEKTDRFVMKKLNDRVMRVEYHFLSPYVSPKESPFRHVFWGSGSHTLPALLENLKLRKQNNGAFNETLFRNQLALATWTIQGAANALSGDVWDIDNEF

Results are given in words; binding and its absence hold for the method and conditions named. Some binding calls cover weakened binding; strength is not graded here.

B1: 鼠单克隆抗体8E11 (antibody, V domains shown)
VH: QVQLQQSGAELVRPGTSVKISCKASGYAFTNYWLGWVKQRPGRGLEWIGDIFPGSSNTYYNEKFKGKASLTADKSSSTAYMHLSSLTSEDSAVYFCARVKDYYAMGYWGQGTSVTVSS
VL: ENVLTQSPAIMSASPGEKVTMTCSASSSVSYMNWYQQKSITSPKLWIYDTFKLASGVPGRFSGSGSGNSYSLTISSMEAEDVATYYCFQGSGYPYTFGGGTKLEIK
B1: the binding entry in the test with sTfR重组蛋白 [1] and with sTfR重组蛋白 [2] was “binds” each time.

The values above are taken from patent CN112409487A.
